Measurements from publication PMC3665532.
No constants are given. Whether binding was seen depends on the method and setting. Binding seen in cells or lysates may run through a third protein. Some results given as binding are weak or reduced against the parent protein; the word gives no strength.

Biological target: T1, potassium-chloride cotransporter 3 (KCC3), wild type, transiently expressed (UniProt Q9UHW9)
T1 sequence: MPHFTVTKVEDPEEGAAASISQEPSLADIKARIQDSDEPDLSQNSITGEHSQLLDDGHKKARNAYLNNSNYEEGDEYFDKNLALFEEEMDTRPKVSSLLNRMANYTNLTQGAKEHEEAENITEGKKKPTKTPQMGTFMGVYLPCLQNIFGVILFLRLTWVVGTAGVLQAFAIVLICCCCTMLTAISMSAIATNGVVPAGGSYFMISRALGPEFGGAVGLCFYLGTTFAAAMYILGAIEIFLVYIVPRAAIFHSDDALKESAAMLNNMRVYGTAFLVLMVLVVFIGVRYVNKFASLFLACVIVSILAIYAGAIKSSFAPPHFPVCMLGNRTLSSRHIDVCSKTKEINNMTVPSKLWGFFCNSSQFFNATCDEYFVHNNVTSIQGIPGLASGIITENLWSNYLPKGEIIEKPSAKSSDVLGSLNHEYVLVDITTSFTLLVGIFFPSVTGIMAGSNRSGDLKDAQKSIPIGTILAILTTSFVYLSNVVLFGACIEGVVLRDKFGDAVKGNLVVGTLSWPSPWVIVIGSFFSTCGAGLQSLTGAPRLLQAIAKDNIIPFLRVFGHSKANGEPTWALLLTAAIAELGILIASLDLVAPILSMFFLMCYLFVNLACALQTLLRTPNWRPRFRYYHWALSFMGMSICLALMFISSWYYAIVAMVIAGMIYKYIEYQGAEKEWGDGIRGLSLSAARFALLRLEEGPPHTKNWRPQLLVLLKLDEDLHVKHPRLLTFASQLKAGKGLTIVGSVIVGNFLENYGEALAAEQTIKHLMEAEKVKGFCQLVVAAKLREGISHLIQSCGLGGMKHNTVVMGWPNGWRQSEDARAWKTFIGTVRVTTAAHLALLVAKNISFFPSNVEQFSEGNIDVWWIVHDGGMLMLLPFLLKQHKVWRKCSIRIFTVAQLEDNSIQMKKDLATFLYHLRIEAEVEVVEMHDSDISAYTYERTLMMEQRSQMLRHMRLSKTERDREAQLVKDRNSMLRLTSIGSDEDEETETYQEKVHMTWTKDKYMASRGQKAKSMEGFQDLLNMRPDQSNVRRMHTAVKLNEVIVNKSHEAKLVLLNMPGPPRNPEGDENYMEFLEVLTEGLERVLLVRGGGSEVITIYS
Experiment: co-IP; HeLa cells transiently expressing KCC3 forms, lysed in RIPA buffer; magnetic beads coupled with KCC3 antibody; precipitate probed with Vav2 antibody

B1: Vav2 (guanine nucleotide exchange factor), endogenous in HeLa cells (protein, UniProt P52735 1-878)
chain: MEQWRQCGRWLIDCKVLPPNHRVVWPSAVVFDLAQALRDGVLLCQLLHNLSPGSIDLKDINFRPQMSQFLCLKNIRTFLKVCHDKFGLRNSELFDPFDLFDVRDFGKVISAVSRLSLHSIAQNKGIRPFPSEETTENDDDVYRSLEELADEHDLGEDIYDCVPCEDGGDDIYEDIIKVEVQQPMIRYMQKMGMTEDDKRNCCLLEIQETEAKYYRTLEDIEKNYMSPLRLVLSPADMAAVFINLEDLIKVHHSFLRAIDVSVMVGGSTLAKVFLDFKERLLIYGEYCSHMEHAQNTLNQLLASREDFRQKVEECTLKVQDGKFKLQDLLVVPMQRVLKYHLLLKELLSHSAERPERQQLKEALEAMQDLAMYINEVKRDKETLRKISEFQSSIENLQVKLEEFGRPKIDGELKVRSIVNHTKQDRYLFLFDKVVIVCKRKGYSYELKEIIELLFHKMTDDPMNNKDVKKSHGKMWSYGFYLIHLQGKQGFQFFCKTEDMKRKWMEQFEMAMSNIKPDKANANHHSFQMYTFDKTTNCKACKMFLRGTFYQGYMCTKCGVGAHKECLEVIPPCKFTSPADLDASGAGPGPKMVAMQNYHGNPAPPGKPVLTFQTGDVLELLRGDPESPWWEGRLVQTRKSGYFPSSSVKPCPVDGRPPISRPPSREIDYTAYPWFAGNMERQQTDNLLKSHASGTYLIRERPAEAERFAISIKFNDEVKHIKVVEKDNWIHITEAKKFDSLLELVEYYQCHSLKESFKQLDTTLKYPYKSRERSASRASSRSPASCASYNFSFLSPQGLSFASQGPSAPFWSVFTPRVIGTAVARYNFAARDMRELSLREGDVVRIYSRIGGDQGWWKGETNGRIGWFPSTYVEEEGIQ
For B1, the binding was “binds”.
